In experiment [1] the target is NCoR1 (human (endogenous in HMEC-RAS-ZEB1)) (UniProt O75376). Kind of experiment: co-IP; whole cell extracts of HMEC-RAS-ZEB1 cells immunoprecipitated with anti-ZEB1, anti-TBL1, anti-TBLR1, anti-NCoR or control IgG; precipitates and 3% of input analysed by western blot. In general terms: In western blotting, separated proteins are transferred to a membrane and probed.

Chains of the proteins cited; added tags and fusions are not shown.
UniProt O75376: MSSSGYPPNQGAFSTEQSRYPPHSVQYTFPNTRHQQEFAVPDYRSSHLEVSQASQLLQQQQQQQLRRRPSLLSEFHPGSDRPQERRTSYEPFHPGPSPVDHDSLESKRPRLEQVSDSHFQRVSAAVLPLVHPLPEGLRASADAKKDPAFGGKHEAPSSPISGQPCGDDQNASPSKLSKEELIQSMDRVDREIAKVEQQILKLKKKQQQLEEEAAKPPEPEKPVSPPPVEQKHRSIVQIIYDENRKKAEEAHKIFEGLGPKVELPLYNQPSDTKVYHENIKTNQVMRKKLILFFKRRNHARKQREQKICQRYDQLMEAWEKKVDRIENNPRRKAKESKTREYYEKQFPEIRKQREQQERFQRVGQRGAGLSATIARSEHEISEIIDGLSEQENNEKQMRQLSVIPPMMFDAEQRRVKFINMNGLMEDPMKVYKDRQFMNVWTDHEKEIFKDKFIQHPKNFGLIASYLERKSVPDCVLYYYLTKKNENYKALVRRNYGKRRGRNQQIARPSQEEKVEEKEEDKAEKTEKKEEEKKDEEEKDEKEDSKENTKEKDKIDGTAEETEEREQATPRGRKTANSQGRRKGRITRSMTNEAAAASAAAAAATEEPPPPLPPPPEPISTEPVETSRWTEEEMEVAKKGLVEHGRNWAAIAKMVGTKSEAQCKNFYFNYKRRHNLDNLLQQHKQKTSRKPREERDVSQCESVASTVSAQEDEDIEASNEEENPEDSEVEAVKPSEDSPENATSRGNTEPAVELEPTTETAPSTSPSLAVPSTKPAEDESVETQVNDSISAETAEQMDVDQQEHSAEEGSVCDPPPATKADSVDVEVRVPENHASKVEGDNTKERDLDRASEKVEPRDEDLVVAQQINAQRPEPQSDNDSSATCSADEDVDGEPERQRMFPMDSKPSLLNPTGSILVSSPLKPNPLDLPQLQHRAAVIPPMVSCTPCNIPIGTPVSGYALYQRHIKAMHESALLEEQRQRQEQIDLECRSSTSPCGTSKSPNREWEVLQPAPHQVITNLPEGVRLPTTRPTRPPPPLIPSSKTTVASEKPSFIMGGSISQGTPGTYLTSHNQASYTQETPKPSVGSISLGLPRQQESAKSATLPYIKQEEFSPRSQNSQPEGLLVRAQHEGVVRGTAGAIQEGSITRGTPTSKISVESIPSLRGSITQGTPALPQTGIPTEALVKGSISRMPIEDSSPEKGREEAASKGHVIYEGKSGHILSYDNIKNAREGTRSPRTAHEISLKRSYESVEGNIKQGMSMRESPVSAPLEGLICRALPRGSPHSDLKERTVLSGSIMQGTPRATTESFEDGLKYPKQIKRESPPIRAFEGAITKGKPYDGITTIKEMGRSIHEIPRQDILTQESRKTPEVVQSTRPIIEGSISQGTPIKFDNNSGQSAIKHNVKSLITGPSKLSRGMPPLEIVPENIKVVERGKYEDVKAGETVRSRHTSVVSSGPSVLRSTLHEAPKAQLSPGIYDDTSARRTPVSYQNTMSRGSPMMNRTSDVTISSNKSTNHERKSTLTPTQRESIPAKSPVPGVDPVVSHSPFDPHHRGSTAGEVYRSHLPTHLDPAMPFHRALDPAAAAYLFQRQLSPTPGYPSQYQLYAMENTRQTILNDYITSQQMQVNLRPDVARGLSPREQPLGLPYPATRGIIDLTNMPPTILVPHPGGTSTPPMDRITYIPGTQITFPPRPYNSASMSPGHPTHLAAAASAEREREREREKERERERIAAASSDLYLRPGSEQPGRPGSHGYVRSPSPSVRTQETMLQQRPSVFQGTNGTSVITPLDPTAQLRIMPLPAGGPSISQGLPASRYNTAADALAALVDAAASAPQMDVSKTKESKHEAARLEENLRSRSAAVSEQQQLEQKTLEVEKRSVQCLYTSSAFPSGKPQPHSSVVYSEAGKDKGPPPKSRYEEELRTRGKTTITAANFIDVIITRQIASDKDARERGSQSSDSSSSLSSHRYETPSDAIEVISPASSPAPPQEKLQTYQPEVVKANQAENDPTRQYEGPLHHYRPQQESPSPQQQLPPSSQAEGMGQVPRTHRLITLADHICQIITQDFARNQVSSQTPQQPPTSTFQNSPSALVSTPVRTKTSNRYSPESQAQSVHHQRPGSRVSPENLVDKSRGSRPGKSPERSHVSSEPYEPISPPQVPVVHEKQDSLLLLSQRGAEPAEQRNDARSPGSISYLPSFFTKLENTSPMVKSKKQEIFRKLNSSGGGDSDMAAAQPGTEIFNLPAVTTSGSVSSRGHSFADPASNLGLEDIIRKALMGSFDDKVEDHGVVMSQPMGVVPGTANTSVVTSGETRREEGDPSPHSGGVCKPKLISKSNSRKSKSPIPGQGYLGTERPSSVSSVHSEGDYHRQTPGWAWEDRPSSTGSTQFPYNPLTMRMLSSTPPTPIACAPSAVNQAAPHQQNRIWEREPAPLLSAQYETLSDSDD

The target of experiment [2] is T1, TBLR1 (human (endogenous in HMEC-RAS-ZEB1)) (UniProt Q9BZK7).
T1 sequence: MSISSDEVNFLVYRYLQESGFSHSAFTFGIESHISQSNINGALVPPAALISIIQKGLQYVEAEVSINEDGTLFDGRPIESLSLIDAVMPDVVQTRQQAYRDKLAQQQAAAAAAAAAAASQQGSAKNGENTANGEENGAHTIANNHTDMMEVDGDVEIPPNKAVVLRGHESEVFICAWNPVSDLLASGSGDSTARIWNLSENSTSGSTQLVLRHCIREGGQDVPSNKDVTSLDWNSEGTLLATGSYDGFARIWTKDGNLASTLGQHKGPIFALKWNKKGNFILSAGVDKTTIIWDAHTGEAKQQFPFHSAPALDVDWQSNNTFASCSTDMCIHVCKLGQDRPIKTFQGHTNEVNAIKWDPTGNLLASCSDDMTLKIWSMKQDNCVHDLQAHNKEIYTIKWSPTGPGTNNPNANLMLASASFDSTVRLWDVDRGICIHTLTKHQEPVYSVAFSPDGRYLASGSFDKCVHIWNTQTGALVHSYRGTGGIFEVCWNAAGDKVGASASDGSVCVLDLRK
The experiment is described as above.

In experiment [3] the target is T2, Flag-tagged Transducin beta-like 1 (TBL1) (human) (UniProt O60907).
T2 sequence: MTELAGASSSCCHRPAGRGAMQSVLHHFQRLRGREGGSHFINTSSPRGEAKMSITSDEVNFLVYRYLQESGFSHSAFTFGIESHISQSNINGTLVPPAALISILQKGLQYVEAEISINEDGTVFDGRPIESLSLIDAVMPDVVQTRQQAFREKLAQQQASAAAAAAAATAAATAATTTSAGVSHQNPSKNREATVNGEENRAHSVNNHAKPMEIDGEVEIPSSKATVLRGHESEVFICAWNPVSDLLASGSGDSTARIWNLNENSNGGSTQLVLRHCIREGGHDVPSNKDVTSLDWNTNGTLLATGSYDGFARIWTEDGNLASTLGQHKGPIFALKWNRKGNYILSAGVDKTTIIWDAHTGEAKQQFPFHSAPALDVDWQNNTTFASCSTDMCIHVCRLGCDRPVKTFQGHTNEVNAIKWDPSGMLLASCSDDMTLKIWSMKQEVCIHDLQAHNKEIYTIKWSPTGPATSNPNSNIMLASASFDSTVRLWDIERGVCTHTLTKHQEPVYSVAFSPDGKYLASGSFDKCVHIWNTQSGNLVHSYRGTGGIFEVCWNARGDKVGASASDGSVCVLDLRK
Kind of experiment: co-IP; HEK293T cells transiently co-transfected with Flag-TBL1 and HA-ZEB1; cell extracts immunoprecipitated with anti-Flag or control IgG; western blot.

No constants are given. Whether binding was seen depends on the method and setting. Binding seen in cells or lysates may run through a third protein. Some results given as binding are weak or reduced against the parent protein; the word gives no strength. For part of these data: Where a sequence is shown, tags or fusion partners need not be part of it.

B1: endogenous TBL1 protein (protein, UniProt O60907 1-577)
chain: T2 sequence
For the molecule B1, the binding result in experiment [1] and in experiment [2] was “binds” in each case.

B2: HA-tagged ZEB1 (protein, UniProt P37275 1-1124)
chain: MADGPRCKRRKQANPRRNNVTNYNTVVETNSDSDDEDKLHIVEEESVTDAADCEGVPEDDLPTDQTVLPGRSSEREGNAKNCWEDDRKEGQEILGPEAQADEAGCTVKDDECESDAENEQNHDPNVEEFLQQQDTAVIFPEAPEEDQRQGTPEASGHDENGTPDAFSQLLTCPYCDRGYKRFTSLKEHIKYRHEKNEDNFSCSLCSYTFAYRTQLERHMTSHKSGRDQRHVTQSGCNRKFKCTECGKAFKYKHHLKEHLRIHSGEKPYECPNCKKRFSHSGSYSSHISSKKCISLIPVNGRPRTGLKTSQCSSPSLSASPGSPTRPQIRQKIENKPLQEQLSVNQIKTEPVDYEFKPIVVASGINCSTPLQNGVFTGGGPLQATSSPQGMVQAVVLPTVGLVSPISINLSDIQNVLKVAVDGNVIRQVLENNQANLASKEQETINASPIQQGGHSVISAISLPLVDQDGTTKIIINYSLEQPSQLQVVPQNLKKENPVATNSCKSEKLPEDLTVKSEKDKSFEGGVNDSTCLLCDDCPGDINALPELKHYDLKQPTQPPPLPAAEAEKPESSVSSATGDGNLSPSQPPLKNLLSLLKAYYALNAQPSAEELSKIADSVNLPLDVVKKWFEKMQAGQISVQSSEPSSPEPGKVNIPAKNNDQPQSANANEPQDSTVNLQSPLKMTNSPVLPVGSTTNGSRSSTPSPSPLNLSSSRNTQGYLYTAEGAQEEPQVEPLDLSLPKQQGELLERSTITSVYQNSVYSVQEEPLNLSCAKKEPQKDSCVTDSEPVVNVIPPSANPINIAIPTVTAQLPTIVAIADQNSVPCLRALAANKQTILIPQVAYTYSTTVSPAVQEPPLKVIQPNGNQDERQDTSSEGVSNVEDQNDSDSTPPKKKMRKTENGMYACDLCDKIFQKSSSLLRHKYEHTGKRPHECGICKKAFKHKHHLIEHMRLHSGEKPYQCDKCGKRFSHSGSYSQHMNHRYSYCKREAEERDSTEQEEAGPEILSNEHVGARASPSQGDSDERESLTREEDEDSEKEEEEEDKEMEELQEEKECEKPQGDEEEEEEEEEVEEEEVEEAENEGEEAKTEGLMKDDRAESQASSLGQKVGESSEQVSEEKTNEA
B2: the binding result in experiment [3] is “binds”.

Source of the values: publication PMC6355934.
